Measured values taken from the supplement of paper PMC8728848.
Some of the results follow.

Legend:
Assay in all cases: glycan array binding signal (z-score within array); higher = stronger binding
Conditions in all cases: glycan notation: IUPAC condensed, linker removed
[1] = target: Gal(b1-3)GlcNAc(b1-3)Gal(b1-4)GlcNAc(b1-2)[Gal(b1-3)GlcNAc(b1-3)Gal(b1-4)GlcNAc(b1-6)]Man(a1-6)[Gal(b1-3)GlcNAc(b1-3)Gal(b1-4)GlcNAc(b1-2)Man(a1-3)]Man(b1-4)GlcNAc(b1-4)[Fuc(a1-6)]GlcNAc
How it was run: (§1)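 From the Consortium for Functional Glycomics database, 3228 arrays were curated, keeping only those whose protein sequence was available. Binding is given as a within-array Z-score averaged across arrays sharing a protein sequence and across linkers. Negative Z-scores can be read as non-binding.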

[2] = target: Gal(b1-3)GlcNAc(b1-3)Gal(b1-4)GlcNAc(b1-3)Gal(b1-4)GlcNAc(b1-2)[Gal(b1-3)GlcNAc(b1-3)Gal(b1-4)GlcNAc(b1-3)Gal(b1-4)GlcNAc(b1-6)]Man(a1-6)[Gal(b1-3)GlcNAc(b1-3)Gal(b1-4)GlcNAc(b1-3)Gal(b1-4)GlcNAc(b1-2)Man(a1-3)]Man(b1-4)GlcNAc(b1-4)[Fuc(a1-6)]GlcNAc
How it was run: as §1

[3] = target: Gal(b1-3)GlcNAc(b1-3)Gal(b1-4)GlcNAc(b1-6)[Gal(b1-3)GlcNAc(b1-3)]Gal(b1-4)Glc
How it was run: as §1

[4] = target: Gal(b1-3)GlcNAc(b1-3)Gal(b1-4)[Fuc(a1-3)]GlcNAc
How it was run: as §1

[5] = target: Gal(b1-3)GlcNAc(b1-3)Gal(b1-4)[Fuc(a1-3)]GlcNAc(b1-6)[Gal(b1-3)GlcNAc(b1-3)]Gal(b1-4)Glc
How it was run: as §1

[6] = target: Gal(b1-3)GlcNAc(b1-3)GalNAc
How it was run: as §1

[7] = target: Gal(b1-3)GlcNAc(b1-6)Gal(b1-4)GlcNAc
How it was run: as §1

[8] = target: Gal(b1-3)GlcNAc(b1-6)GalNAc
How it was run: as §1

[9] = target: Gal(b1-3)GlcNAc(b1-6)[Gal(b1-3)]GalNAc
How it was run: as §1

Gal(b1-3)GlcNAc6S = target: Gal(b1-3)GlcNAc6S
How it was run: as §1

[10] = target: Gal(b1-3)[Fuc(a1-4)]GlcNAc
How it was run: as §1

[11] = target: Gal(b1-3)[Fuc(a1-4)]GlcNAc(b1-2)Man
How it was run: as §1

[12] = target: Gal(b1-3)[Fuc(a1-4)]GlcNAc(b1-2)Man(a1-3)[Gal(b1-3)[Fuc(a1-4)]GlcNAc(b1-2)Man(a1-6)]Man(b1-4)GlcNAc(b1-4)[Fuc(a1-6)]GlcNAc
How it was run: as §1

[13] = target: Gal(b1-3)[Fuc(a1-4)]GlcNAc(b1-3)Gal(b1-3)[Fuc(a1-4)]GlcNAc
How it was run: as §1

[14] = target: Gal(b1-3)[Fuc(a1-4)]GlcNAc(b1-3)Gal(b1-4)[Fuc(a1-3)]GlcNAc
How it was run: as §1

[15] = target: Gal(b1-3)[Fuc(a1-4)]GlcNAc(b1-6)GalNAc
How it was run: as §1

[16] = target: Gal(b1-3)[GlcNAc(b1-6)]GalNAc
How it was run: as §1

[17] = target: Gal(b1-3)[Neu5Ac(a2-6)]GalNAc
How it was run: as §1

[18] = target: Gal(b1-3)[Neu5Ac(a2-6)]GlcNAc(b1-4)Gal(b1-4)Glc
How it was run: as §1

[19] = target: Gal(b1-3)[Neu5Ac(b2-6)]GalNAc
How it was run: as §1

Gal(b1-4)Gal = target: Gal(b1-4)Gal
How it was run: as §1

[20] = target: Gal(b1-4)GalNAc(a1-3)[Fuc(a1-2)]Gal(b1-4)GlcNAc
How it was run: as §1

[21] = target: Gal(b1-4)GalNAc(b1-3)[Fuc(a1-2)]Gal(b1-4)GlcNAc
How it was run: as §1

Gal(b1-4)Glc = target: Gal(b1-4)Glc
How it was run: as §1

Gal(b1-4)Glc6S = target: Gal(b1-4)Glc6S
How it was run: as §1

Gal(b1-4)GlcNAc = target: Gal(b1-4)GlcNAc
How it was run: as §1

[22] = target: Gal(b1-4)GlcNAc(a1-6)Gal(b1-4)GlcNAc
How it was run: as §1

Gal(b1-4)GlcNAc(b1-2)Man = target: Gal(b1-4)GlcNAc(b1-2)Man
How it was run: as §1

[23] = target: Gal(b1-4)GlcNAc(b1-2)Man(a1-3)Man(b1-4)GlcNAc(b1-4)GlcNAc
How it was run: as §1

[24] = target: Gal(b1-4)GlcNAc(b1-2)Man(a1-3)[Gal(b1-4)GlcNAc(b1-2)Man(a1-6)]Man(b1-4)GlcNAc(b1-4)GlcNAc
How it was run: as §1

[25] = target: Gal(b1-4)GlcNAc(b1-2)Man(a1-3)[Gal(b1-4)GlcNAc(b1-2)Man(a1-6)]Man(b1-4)GlcNAc(b1-4)[Fuc(a1-6)]GlcNAc
How it was run: as §1

[26] = target: Gal(b1-4)GlcNAc(b1-2)Man(a1-3)[Gal(b1-4)GlcNAc(b1-2)Man(a1-6)][Gal(b1-4)GlcNAc(b1-4)]Man(b1-4)GlcNAc(b1-4)[Fuc(a1-6)]GlcNAc
How it was run: as §1

[27] = target: Gal(b1-4)GlcNAc(b1-2)Man(a1-3)[Gal(b1-4)GlcNAc(b1-2)Man(a1-6)][GlcNAc(b1-4)]Man(b1-4)GlcNAc(b1-4)[Fuc(a1-6)]GlcNAc
How it was run: as §1

[28] = target: Gal(b1-4)GlcNAc(b1-2)Man(a1-3)[GlcNAc(b1-2)Man(a1-6)]Man(b1-4)GlcNAc(b1-4)GlcNAc
How it was run: as §1

[29] = target: Gal(b1-4)GlcNAc(b1-2)Man(a1-3)[GlcNAc(b1-4)][Gal(b1-4)GlcNAc(b1-2)Man(a1-6)]Man(b1-4)GlcNAc(b1-4)GlcNAc
How it was run: as §1

[30] = target: Gal(b1-4)GlcNAc(b1-2)Man(a1-3)[Man(a1-6)]Man(b1-4)GlcNAc(b1-4)GlcNAc
How it was run: as §1

[31] = target: Gal(b1-4)GlcNAc(b1-2)Man(a1-6)Man(b1-4)GlcNAc(b1-4)GlcNAc
How it was run: as §1

[32] = target: Gal(b1-4)GlcNAc(b1-2)Man(a1-6)[GlcNAc(b1-2)Man(a1-3)]Man(b1-4)GlcNAc(b1-4)GlcNAc
How it was run: as §1

B1: LF82 (Escherichia coli) (protein)
chain: ADWGPCRTASGDPFIFVTSFTKNIQNPTDNVTGQTYPDFYQWALGDKYSGVCECPSPNPTEARPTLYKTESTLAAGHNSTYFKITNNLEVSTRVYIANVGNVQVPFINKSNSQPGRECDQPTFGWTTGSKGQLSLYIAKPFVGEQNIPQTIIVSVFGTKKENVYSSVPISQVLLSGKVTVTQGCELAAGTSLDIDFGEYQAHDFKGRTGQPPQNVQKIQKELTFNCTNISDGVHIYLSLEGTPNAAYPSAISLGNADVGAVIEDGKGNILKPNDSNSLLEMNPGSLYEYVKRKVTTTITAYPVSTTGKLPAAGDYSGVATMHVELDGGGGGGGGGGATTDLGAKGTLKFSLKISQGHHHHHH
glycan array binding signal (z-score) [1]: 0.204
glycan array binding signal (z-score) [2]: 1.42
glycan array binding signal (z-score) [3]: -0.759
glycan array binding signal (z-score) [4]: 0.726
glycan array binding signal (z-score) [5]: 1.49
glycan array binding signal (z-score) [6]: -0.805
glycan array binding signal (z-score) [7]: 0.843
glycan array binding signal (z-score) [8]: -0.789
glycan array binding signal (z-score) [9]: 0.491
glycan array binding signal (z-score) (Gal(b1-3)GlcNAc6S): -0.996
glycan array binding signal (z-score) [10]: 0.167
glycan array binding signal (z-score) [11]: 1.47
glycan array binding signal (z-score) [12]: 0.378
glycan array binding signal (z-score) [13]: -0.045
glycan array binding signal (z-score) [14]: -1.43
glycan array binding signal (z-score) [15]: 2.17
glycan array binding signal (z-score) [16]: -0.354
glycan array binding signal (z-score) [17]: -0.209
glycan array binding signal (z-score) [18]: 1.35
glycan array binding signal (z-score) [19]: -0.087
glycan array binding signal (z-score) (Gal(b1-4)Gal): -0.8
glycan array binding signal (z-score) [20]: -0.127
glycan array binding signal (z-score) [21]: 0.234
glycan array binding signal (z-score) (Gal(b1-4)Glc): -0.412
glycan array binding signal (z-score) (Gal(b1-4)Glc6S): -0.462
glycan array binding signal (z-score) (Gal(b1-4)GlcNAc): -0.74
glycan array binding signal (z-score) [22]: -0.371
glycan array binding signal (z-score) (Gal(b1-4)GlcNAc(b1-2)Man): -0.374
glycan array binding signal (z-score) [23]: -1.06
glycan array binding signal (z-score) [24]: -0.367
glycan array binding signal (z-score) [25]: 0.612
glycan array binding signal (z-score) [26]: -0.286
glycan array binding signal (z-score) [27]: 1.05
glycan array binding signal (z-score) [28]: -0.816
glycan array binding signal (z-score) [29]: -0.745
glycan array binding signal (z-score) [30]: 0.542
glycan array binding signal (z-score) [31]: 4.95
glycan array binding signal (z-score) [32]: -0.836
